These results are taken from US20220184084A1, “COMPOSITIONS AND METHODS FOR TREATING CUSHING'S DISEASE” (The Regents of the University of California, priority 2019, published 2022).

Molecules are shown by their SMILES.

The test system of experiment [1] is AtT20 cells stably transfected with POMC promoter driven luciferase. The experiment in a line: POMC promoter-driven luciferase assay (POMC-Luc). The format is cell-based, murine. The conditions noted are these: Mus musculus, 24 h, 1 day, read-out: EC50 for POMC transcription inhibition. As for the experimental part:
FIG. 6H depicts the results of a study wherein AtT20 cells were treated with panobinostat and burparlisib simultaneously to detect the effects on POMC transcription.
Using a POMC promoter-driven luciferase assay, the direct actions of the aforementioned compounds on POMC transcription was examined.

Another experiment deals with AtT20 cells. The experiment in a line: AtT20 cell proliferation IC50 (CellTiter-Glo). The format is cell-based, murine. The conditions noted are these: Mus musculus, AtT20, 72 h, 3 days, read-out: IC50 for proliferation inhibition. As for the experimental part: The IC50 values were calculated using sigmoidal dose-response curve (GraphPad Prism).
In one aspect, the invention provides a “gain of signal” ACTH AlphaLISA assay useful for a high throughput screen (HTS) evaluation. Using ACTH AlphaLISA assay described herein in combination with nuclei staining (Hoechst 33342 dye), the inventors screened an annotated kinase inhibitor library.
In general terms: Cellular ATP, detected with luciferase, serves as a proxy for viable cell number.

On to `O=C(CCCCCCC(=O)Nc1ccccc1)NO` [vorinostat], for which the concentration giving a half-maximal response (EC50) in experiment [1] came to 0.5 µM. In the experiment with AtT20 cells, the IC50 came to 2 µM.

The EC50 is the concentration needed to bring the measured effect to its halfway point.
